Measurements from the supplement of paper PMC10060354, “Discovery of a small molecule ligand of FRS2 that inhibits invasion and tumor growth” (Cellular Oncology, 2022).
Single values are uncertain, as repeats are few or missing.

The chains behind the UniProt entries cited, without tags or fusion partners. Where a name states a change or a piece, a line headed by the entry shows the natural chain unless it says otherwise.
UniProt Q9BTU6: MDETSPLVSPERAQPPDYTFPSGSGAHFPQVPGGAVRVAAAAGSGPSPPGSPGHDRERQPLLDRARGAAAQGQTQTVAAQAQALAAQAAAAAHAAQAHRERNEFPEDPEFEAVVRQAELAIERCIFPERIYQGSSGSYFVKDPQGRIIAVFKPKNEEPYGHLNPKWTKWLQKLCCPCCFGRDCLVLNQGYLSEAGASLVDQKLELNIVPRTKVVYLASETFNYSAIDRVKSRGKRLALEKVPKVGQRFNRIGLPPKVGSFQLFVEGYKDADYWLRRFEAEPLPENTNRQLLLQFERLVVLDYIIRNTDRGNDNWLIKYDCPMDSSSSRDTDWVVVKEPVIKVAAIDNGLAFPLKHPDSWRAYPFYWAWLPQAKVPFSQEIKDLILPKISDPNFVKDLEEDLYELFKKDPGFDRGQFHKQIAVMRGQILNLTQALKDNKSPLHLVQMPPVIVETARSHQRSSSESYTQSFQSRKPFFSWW
UniProt Q92599: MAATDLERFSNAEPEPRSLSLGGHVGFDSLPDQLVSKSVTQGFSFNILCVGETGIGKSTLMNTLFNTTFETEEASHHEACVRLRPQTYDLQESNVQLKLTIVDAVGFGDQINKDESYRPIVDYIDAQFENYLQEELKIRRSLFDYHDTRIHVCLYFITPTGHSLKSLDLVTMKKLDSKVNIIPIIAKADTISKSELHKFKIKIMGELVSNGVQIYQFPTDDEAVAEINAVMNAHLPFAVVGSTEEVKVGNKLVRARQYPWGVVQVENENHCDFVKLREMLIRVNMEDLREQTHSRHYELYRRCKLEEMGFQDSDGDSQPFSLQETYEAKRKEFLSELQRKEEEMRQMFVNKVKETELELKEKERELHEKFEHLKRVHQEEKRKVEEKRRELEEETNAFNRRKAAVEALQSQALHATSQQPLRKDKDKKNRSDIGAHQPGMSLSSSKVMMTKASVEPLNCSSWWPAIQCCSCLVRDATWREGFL
UniProt Q96C19: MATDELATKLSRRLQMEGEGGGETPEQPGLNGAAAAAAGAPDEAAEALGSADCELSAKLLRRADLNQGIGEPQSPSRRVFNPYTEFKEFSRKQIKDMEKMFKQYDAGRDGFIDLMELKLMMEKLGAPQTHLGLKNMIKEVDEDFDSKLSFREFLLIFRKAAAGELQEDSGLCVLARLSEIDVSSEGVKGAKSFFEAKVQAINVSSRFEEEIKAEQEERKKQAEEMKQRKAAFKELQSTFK
UniProt Q9NQ11: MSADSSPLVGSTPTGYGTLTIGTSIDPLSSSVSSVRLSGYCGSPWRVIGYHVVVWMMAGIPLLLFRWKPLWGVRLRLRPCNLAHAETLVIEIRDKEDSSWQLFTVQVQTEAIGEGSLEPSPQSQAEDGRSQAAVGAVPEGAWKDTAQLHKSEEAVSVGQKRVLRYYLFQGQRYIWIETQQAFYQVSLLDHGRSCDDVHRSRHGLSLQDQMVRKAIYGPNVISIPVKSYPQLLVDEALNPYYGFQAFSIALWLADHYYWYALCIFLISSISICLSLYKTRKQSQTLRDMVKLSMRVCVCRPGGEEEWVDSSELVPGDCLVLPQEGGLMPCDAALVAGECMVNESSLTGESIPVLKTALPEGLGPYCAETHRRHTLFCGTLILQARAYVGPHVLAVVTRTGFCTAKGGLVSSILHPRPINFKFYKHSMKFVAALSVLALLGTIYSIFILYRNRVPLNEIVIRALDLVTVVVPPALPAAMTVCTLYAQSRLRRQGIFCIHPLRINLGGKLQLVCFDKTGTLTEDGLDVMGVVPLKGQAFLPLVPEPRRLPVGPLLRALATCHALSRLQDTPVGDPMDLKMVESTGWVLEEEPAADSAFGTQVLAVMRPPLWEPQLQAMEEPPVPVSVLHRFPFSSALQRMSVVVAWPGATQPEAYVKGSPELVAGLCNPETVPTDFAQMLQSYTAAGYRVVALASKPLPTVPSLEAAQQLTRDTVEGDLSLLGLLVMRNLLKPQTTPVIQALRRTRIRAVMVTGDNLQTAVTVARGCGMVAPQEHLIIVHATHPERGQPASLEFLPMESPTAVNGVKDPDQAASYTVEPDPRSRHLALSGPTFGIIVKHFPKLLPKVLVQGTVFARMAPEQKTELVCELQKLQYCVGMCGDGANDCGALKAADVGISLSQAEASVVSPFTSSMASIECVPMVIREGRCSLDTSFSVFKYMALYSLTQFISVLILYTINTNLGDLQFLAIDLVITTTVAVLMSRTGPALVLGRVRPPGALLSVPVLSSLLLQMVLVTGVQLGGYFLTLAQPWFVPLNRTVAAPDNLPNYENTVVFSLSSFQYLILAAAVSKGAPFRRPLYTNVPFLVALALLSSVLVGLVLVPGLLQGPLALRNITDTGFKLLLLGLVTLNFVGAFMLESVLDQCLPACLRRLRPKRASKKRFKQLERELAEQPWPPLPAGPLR
UniProt P58546, whole entry: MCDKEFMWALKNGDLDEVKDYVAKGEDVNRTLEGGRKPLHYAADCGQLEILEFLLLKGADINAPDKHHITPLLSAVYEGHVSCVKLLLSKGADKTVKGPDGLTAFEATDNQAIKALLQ
UniProt Q96HU8: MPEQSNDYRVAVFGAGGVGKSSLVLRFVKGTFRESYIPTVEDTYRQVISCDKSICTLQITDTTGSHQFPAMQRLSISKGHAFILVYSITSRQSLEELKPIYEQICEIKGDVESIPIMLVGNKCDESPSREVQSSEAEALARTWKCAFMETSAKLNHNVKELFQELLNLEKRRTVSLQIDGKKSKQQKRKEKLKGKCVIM
UniProt Q13868, whole entry: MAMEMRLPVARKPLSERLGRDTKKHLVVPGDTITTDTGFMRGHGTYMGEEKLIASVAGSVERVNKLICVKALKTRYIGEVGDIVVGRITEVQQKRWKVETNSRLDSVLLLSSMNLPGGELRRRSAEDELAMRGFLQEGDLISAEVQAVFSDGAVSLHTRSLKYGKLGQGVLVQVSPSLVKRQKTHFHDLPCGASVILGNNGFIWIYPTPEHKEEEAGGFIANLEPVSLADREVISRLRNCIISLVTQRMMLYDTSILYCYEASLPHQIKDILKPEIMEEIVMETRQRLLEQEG
UniProt O75494: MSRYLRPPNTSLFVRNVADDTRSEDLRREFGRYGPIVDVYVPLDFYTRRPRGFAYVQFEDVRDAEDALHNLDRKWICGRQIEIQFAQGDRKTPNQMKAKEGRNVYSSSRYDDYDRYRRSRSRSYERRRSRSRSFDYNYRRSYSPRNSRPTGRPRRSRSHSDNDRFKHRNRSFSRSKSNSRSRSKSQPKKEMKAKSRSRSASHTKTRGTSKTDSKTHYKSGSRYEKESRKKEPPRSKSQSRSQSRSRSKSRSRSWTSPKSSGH
UniProt Q8N5S9: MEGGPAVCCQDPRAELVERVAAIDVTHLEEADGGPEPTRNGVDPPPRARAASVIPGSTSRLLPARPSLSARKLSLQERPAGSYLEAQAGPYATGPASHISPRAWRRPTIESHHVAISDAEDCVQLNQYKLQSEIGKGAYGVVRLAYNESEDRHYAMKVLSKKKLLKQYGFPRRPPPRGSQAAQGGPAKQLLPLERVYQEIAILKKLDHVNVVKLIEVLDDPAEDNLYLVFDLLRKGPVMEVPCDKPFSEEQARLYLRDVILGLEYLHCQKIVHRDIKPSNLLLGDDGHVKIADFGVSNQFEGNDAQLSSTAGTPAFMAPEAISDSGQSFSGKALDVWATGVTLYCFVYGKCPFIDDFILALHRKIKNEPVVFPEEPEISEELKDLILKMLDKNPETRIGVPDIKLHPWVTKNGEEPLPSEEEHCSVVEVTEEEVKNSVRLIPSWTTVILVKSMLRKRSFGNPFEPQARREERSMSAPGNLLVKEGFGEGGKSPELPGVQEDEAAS
UniProt P49755: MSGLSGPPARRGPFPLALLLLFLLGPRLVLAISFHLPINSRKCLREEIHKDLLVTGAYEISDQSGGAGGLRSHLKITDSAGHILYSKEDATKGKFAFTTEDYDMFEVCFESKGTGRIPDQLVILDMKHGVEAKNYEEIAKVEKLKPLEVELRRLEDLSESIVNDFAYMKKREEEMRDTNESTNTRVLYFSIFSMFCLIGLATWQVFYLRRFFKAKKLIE
UniProt Q5JS54: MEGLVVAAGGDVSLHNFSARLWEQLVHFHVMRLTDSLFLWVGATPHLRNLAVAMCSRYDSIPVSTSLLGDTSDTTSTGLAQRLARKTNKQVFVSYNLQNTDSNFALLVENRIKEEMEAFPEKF
UniProt Q9H9E3: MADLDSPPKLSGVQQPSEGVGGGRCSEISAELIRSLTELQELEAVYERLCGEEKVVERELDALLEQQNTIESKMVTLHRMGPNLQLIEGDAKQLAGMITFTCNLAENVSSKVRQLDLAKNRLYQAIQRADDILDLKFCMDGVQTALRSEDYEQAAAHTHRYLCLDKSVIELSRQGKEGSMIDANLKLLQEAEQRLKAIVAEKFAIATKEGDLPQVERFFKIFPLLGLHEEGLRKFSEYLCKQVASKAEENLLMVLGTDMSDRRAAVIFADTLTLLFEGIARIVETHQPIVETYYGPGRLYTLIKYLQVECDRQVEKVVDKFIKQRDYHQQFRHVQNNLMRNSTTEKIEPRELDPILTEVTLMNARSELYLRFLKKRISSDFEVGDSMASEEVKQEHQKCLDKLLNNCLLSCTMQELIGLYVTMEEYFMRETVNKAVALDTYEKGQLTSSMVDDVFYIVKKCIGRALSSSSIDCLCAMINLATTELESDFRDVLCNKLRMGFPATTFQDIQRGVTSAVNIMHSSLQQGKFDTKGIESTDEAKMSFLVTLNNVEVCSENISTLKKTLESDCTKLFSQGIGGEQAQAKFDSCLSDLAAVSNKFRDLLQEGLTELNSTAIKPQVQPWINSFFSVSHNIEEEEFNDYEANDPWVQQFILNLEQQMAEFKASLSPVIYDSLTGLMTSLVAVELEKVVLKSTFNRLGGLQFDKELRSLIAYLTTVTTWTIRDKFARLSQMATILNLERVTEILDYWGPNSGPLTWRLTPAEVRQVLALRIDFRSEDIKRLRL
UniProt Q96DX7: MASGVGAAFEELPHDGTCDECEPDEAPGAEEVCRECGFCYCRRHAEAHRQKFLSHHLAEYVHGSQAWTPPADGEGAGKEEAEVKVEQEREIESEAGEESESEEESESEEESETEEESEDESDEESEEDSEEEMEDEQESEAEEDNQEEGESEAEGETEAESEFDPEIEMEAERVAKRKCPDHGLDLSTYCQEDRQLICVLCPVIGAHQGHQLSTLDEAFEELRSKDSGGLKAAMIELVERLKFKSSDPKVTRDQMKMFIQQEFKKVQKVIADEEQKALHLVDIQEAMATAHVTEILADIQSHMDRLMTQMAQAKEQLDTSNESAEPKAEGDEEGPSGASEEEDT
UniProt A0PJW6: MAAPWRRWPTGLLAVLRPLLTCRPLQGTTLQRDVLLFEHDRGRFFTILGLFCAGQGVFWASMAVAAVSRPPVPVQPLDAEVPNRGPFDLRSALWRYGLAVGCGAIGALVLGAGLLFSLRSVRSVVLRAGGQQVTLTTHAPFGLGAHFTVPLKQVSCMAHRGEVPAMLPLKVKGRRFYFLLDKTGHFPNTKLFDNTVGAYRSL
UniProt Q5T6F2: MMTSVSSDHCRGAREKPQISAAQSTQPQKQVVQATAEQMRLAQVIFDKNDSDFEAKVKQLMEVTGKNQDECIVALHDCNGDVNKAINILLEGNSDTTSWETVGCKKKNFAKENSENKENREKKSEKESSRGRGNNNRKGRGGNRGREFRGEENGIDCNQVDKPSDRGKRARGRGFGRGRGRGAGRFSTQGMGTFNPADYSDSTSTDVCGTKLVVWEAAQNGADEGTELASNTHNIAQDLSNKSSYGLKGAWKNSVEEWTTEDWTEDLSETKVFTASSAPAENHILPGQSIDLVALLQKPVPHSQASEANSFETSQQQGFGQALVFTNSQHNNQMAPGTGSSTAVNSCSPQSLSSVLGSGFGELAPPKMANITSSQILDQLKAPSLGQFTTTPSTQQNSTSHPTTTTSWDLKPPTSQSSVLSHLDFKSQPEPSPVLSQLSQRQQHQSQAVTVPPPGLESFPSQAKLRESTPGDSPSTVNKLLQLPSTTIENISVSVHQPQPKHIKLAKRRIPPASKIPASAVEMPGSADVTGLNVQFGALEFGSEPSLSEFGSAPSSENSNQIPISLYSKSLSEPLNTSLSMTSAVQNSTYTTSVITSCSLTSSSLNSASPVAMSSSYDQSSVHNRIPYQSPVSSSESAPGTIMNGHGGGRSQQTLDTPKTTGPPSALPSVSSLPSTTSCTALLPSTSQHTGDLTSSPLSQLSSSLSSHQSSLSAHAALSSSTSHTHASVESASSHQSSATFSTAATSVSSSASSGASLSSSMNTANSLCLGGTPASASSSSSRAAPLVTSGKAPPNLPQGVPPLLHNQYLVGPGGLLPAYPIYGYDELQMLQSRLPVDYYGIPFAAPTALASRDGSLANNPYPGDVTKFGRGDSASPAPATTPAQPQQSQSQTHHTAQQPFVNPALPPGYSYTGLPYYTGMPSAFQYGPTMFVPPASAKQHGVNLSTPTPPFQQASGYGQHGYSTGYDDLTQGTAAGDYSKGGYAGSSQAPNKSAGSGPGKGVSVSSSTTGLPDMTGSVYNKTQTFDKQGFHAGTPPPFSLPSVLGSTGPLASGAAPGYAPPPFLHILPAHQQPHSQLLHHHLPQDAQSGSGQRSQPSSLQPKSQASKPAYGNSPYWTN

Compound: [O-][N+](C(C1=C(C(O)=C2)NC(C(C=C3)=CC=C3Cl)C4C1C=CC4)=C2Cl)=O
Assay: melting temperature shift (compound 7 minus DMSO); higher = compound stabilises the protein
Details: 10 µM
Procedure: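 Thermal proteome profiling (TMT mass spectrometry) in intact DAOY medulloblastoma cells or DAOY lysates treated with 10 µM compound 7 or DMSO, heated at 10 temperatures from 40.5 to 73.8 °C for 3 min. Melting curves were fitted with the Bioconductor TPP package, and the melting point difference between compound and vehicle is reported per protein (single curve per condition).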

[1] = system: DAOY cell lysate, treatment time: 20 min, 4 °C
[2] = system: intact DAOY cells, treatment time: 90 min, 37 °C

Target | melting temperature shift [1] | melting temperature shift [2]
TST (UniProt Q16762) | -0.744 °C | 0.569 °C
TEX264 (UniProt Q9Y6I9) | 1.89 °C | -0.145 °C
MTMR2 (UniProt Q13614) | -0.534 °C | –
HLTF (UniProt Q14527) | -0.913 °C | -0.5 °C
RRM2 (UniProt P31350) | -0.331 °C | -1.32 °C
TACC1 (UniProt O75410) | 0.551 °C | -0.366 °C
PSMD4 (UniProt P55036) | -1.13 °C | -1.28 °C
PI4K2A (UniProt Q9BTU6) | -0.668 °C | -0.207 °C
UniProt Q92599 | -0.869 °C | -1.77 °C
DNAJC17 (UniProt Q9NVM6) | -0.249 °C | -0.503 °C
ISOC1 (UniProt Q96CN7) | -1.4 °C | 2.05 °C
QRICH1 (UniProt Q2TAL8) | -0.953 °C | 1.29 °C
MRPS14 (UniProt O60783) | -2.38 °C | -0.881 °C
TRIM28 (UniProt Q13263) | -0.687 °C | 0.179 °C
UniProt Q9P0W8 | – | 0.265 °C
UniProt Q9HB20 | -2.28 °C | –
DBT (UniProt P11182) | 0.884 °C | -0.0493 °C
AGAP1 (UniProt Q9UPQ3) | – | 2.31 °C
SEC22B (UniProt O75396) | 1.51 °C | -0.427 °C
ARPC1A (UniProt Q92747) | -1.32 °C | 0.817 °C
RPL26L1 (UniProt Q9UNX3) | 1.37 °C | -0.993 °C
EFHD2 (UniProt Q96C19) | -0.337 °C | 0.0401 °C
SRRT (UniProt Q9BXP5) | -0.0146 °C | -0.726 °C
PLEKHO2 (UniProt Q8TD55) | -0.945 °C | -0.038 °C
UniProt Q9NQ11 | – | -2.76 °C
MTPN (UniProt P58546) | -0.226 °C | -0.153 °C
UniProt Q96HU8 | – | -2.84 °C
TBL1X (UniProt O60907) | -1.16 °C | 1.44 °C

Target | melting temperature shift [1] | melting temperature shift [2]
EXOSC2 (UniProt Q13868) | -1.12 °C | -0.452 °C
UniProt Q8N2Y8 | 2.58 °C | –
VBP1 (UniProt P61758) | -0.855 °C | 0.0431 °C
UniProt Q9NRX6 | -0.845 °C | –
SRSF10 (UniProt O75494) | 0.157 °C | -0.273 °C
UniProt P12110 | -0.0814 °C | 0.416 °C
NFXL1 (UniProt Q6ZNB6) | -0.585 °C | 0.287 °C
CAMKK1 (UniProt Q8N5S9) | -0.883 °C | –
TMED10 (UniProt P49755) | 1.02 °C | -1.47 °C
PSMG4 (UniProt Q5JS54) | -2.56 °C | -1.12 °C
RPS11 (UniProt P62280) | 0.489 °C | -0.832 °C
COG4 (UniProt Q9H9E3) | -0.489 °C | -1.15 °C
DDX59 (UniProt Q5T1V6) | -0.879 °C | -2.3 °C
XRN1 (UniProt Q8IZH2) | -2.44 °C | –
TRIM44 (UniProt Q96DX7) | 3.99 °C | –
BRAF (UniProt P15056) | -0.984 °C | -0.232 °C
INADL (UniProt Q8NI35) | – | -0.764 °C
RASA1 (UniProt P20936) | -0.765 °C | -0.22 °C
STAG2 (UniProt Q8N3U4) | -0.123 °C | -0.291 °C
CEP41 (UniProt Q9BYV8) | -1.23 °C | -0.624 °C
TMEM223 (UniProt A0PJW6) | 0.606 °C | -1.05 °C
UniProt Q12840 | -3.2 °C | –
PLA2G4A (UniProt P47712) | -0.782 °C | -1.31 °C
USP8 (UniProt P40818) | -0.412 °C | 0.252 °C
UniProt P15822 | -1.9 °C | –
PHF6 (UniProt Q8IWS0) | 0.771 °C | 0.382 °C
UBAP2 (UniProt Q5T6F2) | 2.64 °C | –

Single values from the list.
melting temperature shift [1] with TST (UniProt Q16762) is entered as -0.744 °C
melting temperature shift [2] with TRIM28 (UniProt Q13263) is entered as 0.179 °C
melting temperature shift [2] with EXOSC2 (UniProt Q13868) is entered as -0.452 °C
melting temperature shift [2] with PLA2G4A (UniProt P47712) is entered as -1.31 °C
